Assay results as given in patent US4010261A, “Method to prevent reproduction with [Des-Gly]^10 -GN-RH nonadeptide amide analogs in position” (Abbott Laboratories, priority 1974, dated 1977).
Not every detail of the peptide structures is certain; ends, links or a residue may be inferred.

Legend:
Female, immature rats = assay: Ovarian and uterine development in immature female rats (Example 1); type: in vivo, rat
Pregnant, adult rats = assay: Viable implantations in pregnant adult rats, s.c. b.i.d. days 2-6 of gestation (Example 2); type: in vivo, rat; conditions: for number of animals with implants/number of animals treated: sacrifice day 15
pregnant rats [1] = assay: Implantation in pregnant rats, varied treatment days (Example 3); type: in vivo, rat; conditions: 10 μg./day b.i.d. s.c.
Pregnant rabbits [2] = assay: Implants, viable fetuses and resorptions in pregnant rabbits after single s.c. injection (Example 4); type: in vivo, rabbit; conditions: sacrifice day 28
Pregnant rabbits [3] = assay: Viable embryos in pregnant rabbits after single s.c. injection (Example 5); type: in vivo, rabbit
rats = assay: Fate of the implanted ovum in rats, injection at various days of gestation (Example 6); type: in vivo, rat
pregnant rats [4] = assay: Implantation in pregnant rats with various compounds under Compound N (Examples 7-10); type: in vivo, rat
Procedure: a) number of animals with implants/number of animals treated
b) mean implantation sites (based on those with implantation sites)
c) viable fetuses/total number of fetuses (successful pregnancy)
In this experiment, the activity of various compounds encompassed under Compound N are desmonstrated. Groups of 8 - 10 pregnant rats were injected subcutaneously b.i.d. with 0.5 ml. of the medium shown in Example 1 containing the compound and dose identified below. The results are expressed as explained in Example 2.

[5] = immature rats, 1.66 μg./day s.c., after 39 days of treatment
[6] = days 3-6 of gestation, the one rat with an implant
[7] = 50 μg./kg. single s.c. on day 10 of gestation
[8] = 50 μg./kg. single s.c. on day 14 of gestation
[9] = 50 μg./kg. single s.c. on day 19 of gestation

CCNC(=O)[C@@H]1CCCN1C(=O)[C@H](CCCNC(=N)N)NC(=O)[C@H](CC(C)C)NC(=O)[C@@H](CC(C)C)NC(=O)[C@H](Cc1ccc(O)cc1)NC(=O)[C@H](CO)NC(=O)[C@H](Cc1c[nH]c2ccccc12)NC(=O)[C@H](Cc1c[nH]cn1)NC(=O)[C@@H]1CCC(=O)N1 [Compound N, L-pGlu-L-His-L-Trp-L-Ser-L-Tyr-X-L-Leu-L-Arg-L-Pro-NH-R]
time until animals exhibit estrus after the last drug administration (Female, immature rats; after stopping administration): ≤ 5 days
ovarian weight (average) (Female, immature rats; immature rats, 1.66 μg./day s.c., after 18 days): 14.0 mg
average uterine weight (Female, immature rats; [5]): 69.9 mg
ovarian weight (average) (Female, immature rats; [5]): 22.8 mg
time until successful mating after stopping administration (Female, immature rats; most of the animals, delivered normal litters): ≤ 15 days
mean implantation sites (based on those with implantation sites) (Pregnant, adult rats; 1 μg. b.i.d. s.c.): 10.0
viable fetuses/total number of fetuses (successful pregnancy) (Pregnant, adult rats; 1 μg. b.i.d. s.c.): 0%
number of animals with implants/number of animals treated (Pregnant, adult rats; 1 μg. b.i.d. s.c.): 1/10
mean implantation sites (based on those with implantation sites) (Pregnant, adult rats; 10 μg. b.i.d. s.c.): 0
viable fetuses/total number of fetuses (successful pregnancy) (Pregnant, adult rats; 10 μg. b.i.d. s.c.): 0%
number of animals with implants/number of animals treated (Pregnant, adult rats; 10 μg. b.i.d. s.c.): 0/10
implants (pregnant rats [1]; days 2-6 of gestation): no implant
animals showing an implant (pregnant rats [1]; days 3-6 of gestation): one rate in eight
implantation sites (pregnant rats [1]; [6]): 4
viable fetuses (pregnant rats [1]; [6]): no viable fetus
implants (pregnant rats [1]; days 4-6 of gestation): no implant
average implants (Pregnant rabbits [2]; [7]): 7.6
resorptions (Pregnant rabbits [2]; [7]): 34%
viable fetuses (average) (Pregnant rabbits [2]; [7]): 5
average implants (Pregnant rabbits [2]; [8]): 7.4
resorption (Pregnant rabbits [2]; [8]): 84%
viable fetuses (average) (Pregnant rabbits [2]; [8]): 1.2
average implants (Pregnant rabbits [2]; [9]): 7.7
resorption (Pregnant rabbits [2]; [9]): 83%
viable fetuses (average) (Pregnant rabbits [2]; [9]): 1.7
viable embryos (total) (Pregnant rabbits [3]; 50 μg. single s.c. on day 14 of pregnancy, sacrifice day 22): 13%
viable embryos (Pregnant rabbits [3]; 50 μg. single s.c. on day 20 of pregnancy, sacrifice day 29): 40%
viable fetuses (rats; 1 μg. twice per day s.c., days 2-6 inclusive, 10 animals): No viable fetuses
viable fetuses (rats; 10 μg. regimen, days 6 and 7): 15%
animals with implants (rats; 10 μg. regimen, days 6 and 7, 8 animals per group): 2
viable fetuses (rats; 10 μg. regimen, only on day 6): 92%
animals with implants (rats; 10 μg. regimen, only on day 6, 8 animals per group): 5
viable fetuses (rats; 10 μg. regimen, only on day 7): 62%
animals with implants (rats; 10 μg. regimen, only on day 7, 8 animals per group): 6
viable fetuses (rats; 10 μg. twice per day s.c., days 2-6 inclusive, 10 animals): No viable fetuses
viable fetuses (rats; 10 μg. twice per day s.c., days 4-6 inclusive, 7 animals): no viable fetuses
viable fetuses (rats; 10 μg. twice per day, day 4 only): 90%
animals with implants (rats; 10 μg. twice per day, day 4 only, 7 animals per group): 7
viable fetuses (rats; 10 μg. twice per day, day 5 only): 86%
animals with implants (rats; 10 μg. twice per day, day 5 only, 7 animals per group): 7
viable fetuses (rats; 10 μg. twice per day, days 4 and 5): 94%
animals with implants (rats; 10 μg. twice per day, days 4 and 5, 7 animals per group): 2
viable fetuses (rats; 10 μg. twice per day, days 5 and 6): 66%
animals with implants (rats; 10 μg. twice per day, days 5 and 6, 7 animals per group): 5
a: number of animals with implants/number of animals treated (pregnant rats [4]; Dose 10 μg. s.c. b.i.d.): 0/10
b: mean implantation sites (based on those with implantation sites) (pregnant rats [4]; Dose 10 μg. s.c. b.i.d.): 0
c: viable fetuses/total number of fetuses (successful pregnancy) (pregnant rats [4]; Dose 10 μg. s.c. b.i.d.): 0%

CCCCNC(=O)[C@@H]1CCCN1C(=O)[C@H](CCCNC(=N)N)NC(=O)[C@H](CC(C)C)NC(=O)[C@@H](CC(C)C)NC(=O)[C@H](Cc1ccc(O)cc1)NC(=O)[C@H](CO)NC(=O)[C@H](Cc1c[nH]c2ccccc12)NC(=O)[C@H](Cc1c[nH]cn1)NC(=O)[C@@H]1CCC(=O)N1 [Example 9, L-pGlu-L-His-L-Trp-L-Ser-L-Tyr-X-L-Leu-L-Arg-L-Pro-NH-R]
a: number of animals with implants/number of animals treated (pregnant rats [4]; Dose 25 μg. s.c. b.i.d.): 5/10
b: mean implantation sites (based on those with implantation sites) (pregnant rats [4]; Dose 25 μg. s.c. b.i.d.): 10
c: viable fetuses/total number of fetuses (successful pregnancy) (pregnant rats [4]; Dose 25 μg. s.c. b.i.d.): 40%
